Measured values as given in publication PMC10163288.
The other results are listed elsewhere or left out.

B1: il2ra_site1_2b5i_sap_12_mot_HHH_b2_02510_000000222_0001_42_55_H_._ea9dbf872bd896a6772730c64f198f4a_0001_0001_0000400032_0000001_0_0001_af2pred_dldesign_0_af2pre … (protein)
chain: SSSSSAGRELRRLVREADRLFKAGKPEEAKALLEKALELAEKLGATLWVKFIKLALKQIESSSSS
B2: il2ra_site2_3nfp_sap_16_mot_HHH_b1_08097_000000036_0001_22_39_H_._HHH_b1_03703_0001_0000100004_0000001_0_0001 (protein)
chain: SSSSDKSEEYLRIALELLEEAQKAGDEEVARSIAHVAKIAAESLNDEEIEKELEEILEELSSSSS
B3: il2ra_site1_1z92_normal_mot_HHH_b2_04090_000000052_0001_1_16_H_._a0b4aa5fea5d48080b95578646bcd77a_0001_1_af2_0001_0000100006_0000001_0_af2pred_0001_af2pred_1 (protein)
chain: GKEEALELLKELAEKLNDPALRFLAEDLEKLLKRDPEAARRVLRKSVKVAGNPVLQEVLELLESD
B4: il2ra_site2_2erj_sap_24_mot_HHH_b1_00821_000000191_0001_1_20_H_._HHH_b1_05660_0001_0000900016_0000001_0_0001 (protein)
chain: SSSSSDAIEDVARNLEKLAREKGNEEAEEVVEEALEAFRKGILSLRQVFELLNRAMQLLSSSSSS
B5: il2ra_site2_2erj_sap_27_mot_6c2800a769814540b5b47941e710ff28_0001_000000197_0001_35_49_H_._HHH_b1_00672_0001_0000100006_0000001_0_0001 (protein)
chain: SSSSDWLHRLYELANRIMHLIANGDPEEARRLLEELEELAEEADSPAAEKVVENLEKKIESSSSS
B6: il2ra_site2_3nfp_normal_mot_HHH_b1_05392_000000081_0001_38_55_H_._ems_4hM_3012_0002_af2_0001_0000100004_0000001_0 (protein)
chain: DEEEELEKKAEKAAKKQDPELANEVVRLALDNPEAWEELRRVLEEKNNLELLYELNLRFYEERYS
B7: il2ra_site1_1z92_normal_mot_6335285afc518479a1c42dd74dc897f1_0001_1_000000127_0001_16_32_H_._0c3bf8cb9d93094680b22e24baf1e485_0001_0001_0000200018_0000001_0 (protein)
chain: SVLELIKEILEELGNPDLAKFVERAIERYRKLGVPPETIVKALELIARKHGDPDLLEAIELAEER
B8: il2ra_site1_3nfp_normal_mot_HHH_b2_01680_af2_000000278_0001_1_15_H_._HHH_b2_04095_af2_0001_0000100003_0000001_0 (protein)
chain: SSSSTEERKEVERIFRELFKAAREGDEEKAEELAEELEELARERGDKLYLRSAEAALKLLSSSSS
B9: il2ra_site2_2erj_normal_mot_HHH_b2_01275_af2_000000073_0001_23_39_H_._HHH_b2_00463_0001_0000200014_0000001_0 (protein)
chain: SSSSSDKEEVEEEVEEILRRAEETDDLREAYKLAARALRLASELGDPELLELVAKVLERLSSSSS
B10: il2ra_site2_3nfp_normal_mot_HHH_b1_05627_af2_000000038_0001_43_56_H_._HHH_b1_05526_af2_0001_0000100005_0000001_0 (protein)
chain: SSSSDKAEEYVRAAMEAARYALEDGNPEVARRSLELARQLAESLGNEELREEVEELLQELSSSSS
B11: il2ra_site2_2erj_normal_mot_HHH_b1_06554_000000001_0001_44_57_H_._HHH_b1_02402_0001_0000200030_0000001_0_af2pred_0001_af2pred (protein)
chain: SSSSSAERIYELAEEADELALEGDDEEARRVVEEAEELARESNSRSARRALEIALKSIELLSSSS
B12: il2ra_site2_3nfp_normal_mot_HHH_b1_00660_af2_000000090_0001_40_57_H_._HHH_b1_00725_af2_0001_0000100011_0000001_0_af2pred_0001_af2pred (protein)
chain: SSSSDEFLEEIEREVRELIEEGDQEEAERVLKRAAHEVSERRNHEEFAIVTLLLELLERFFSSSS
B13: il2ra_site2_2erj_normal_mot_HHH_b2_03029_000000035_0001_22_38_H_._c19e5fdadaa67d7d98d76bf2a1bb890a_0001_0001_0000600015_0000001_0_1_af2pred_0001_af2pred (protein)
chain: DEEVAELSRLAFELGDELLFRVILELLERIEKGDPEAEELVQELLELLRRGDPEEVERLAREILN
B14: il2ra_site2_3nfp_sap_24_mot_HHH_b1_04960_000000149_0001_23_39_H_._HHH_b2_08127_0001_0000400037_0000001_0_0001 (protein)
chain: SSSSDEDERRVEELLEEARHIPDPEEVRKLLAEAVKIAYENNNSELFFEIAEVAFELIQRSSSSS
B15: il2ra_site1_2b5i_sap_17_mot_HHH_b1_05608_000000027_0001_1_14_H_._HHH_b2_02617_0001_0000200017_0000001_0_0001 (protein)
chain: SSSSDHELTHAAVRIVWRLMWELNLSREEAKLLNRLAAELVERGVSPEELEEILREYAEEISSSS
B16: il2ra_site1_1z92_normal_mot_HHH_b1_02914_000000124_0001_22_39_H_._HHH_b1_08512_0001_0000300015_0000001_0 (protein)
chain: SSSSDEAVEFAFRMAEAAFKSNDEERLEFLIEYLRLALENTGDPRIEELLRQVEELLEELKSSSS
B17: il2ra_site1_2b5i_normal_mot_0e5a94e4a5addaac739760efb25f0f5d_0001_000000289_0001_18_32_H_._ems_p1-16H-GBL-16H-GABBL-15H_0053_0001_0001_0002_af2_0001_0000100002_ … (protein)
chain: SSSSSSEIEKEATELHEKANAAGNKEALKLTITALYRYKTGELTEEEARKLLEEARKLLESSSSS
B18: il2ra_site2_3nfp_normal_mot_HHH_b2_05281_000000198_0001_39_56_H_._HHH_b2_06744_0001_0000200015_0000001_0 (protein)
chain: SSSSSEEEELERLLQEAKRLIEEGNEEEARKLLSRAAALAFRLGDQEVFYELAELALLLASSSSS

What follows are binders tested against il2ra, P01589 (assay: yeast display titration).

Apparent Kd, inactive:
B1 no binding seen, B2 no binding seen, B3 no binding seen, B4 no binding seen, B5 no binding seen, B6 no binding seen, B7 no binding seen, B8 no binding seen, B9 no binding seen, B10 no binding seen, B11 no binding seen, B12 no binding seen, B13 no binding seen, B14 no binding seen, B15 no binding seen, B16 no binding seen, B17 no binding seen, B18 no binding seen
